The structures given here were assigned with low confidence; some may be wrong.
Biological target: recombinant human c-MET kinase enzyme domain (Homo sapiens, UniProt P08581)
Experiment: c-MET receptor tyrosine kinase Homogeneous Time Resolved Fluorescence assay (HTRF)
Conditions: read-out: Biological Activity in Biological Example 1 and/or 2 (mean IC50), Biological Example 1 and/or Biological Example 2
Source text: Recombinant c-Met kinase domain (amino acids 960-1390) was produced in a baculovirus expression vector as an N-terminal His-tagged fusion protein and purified on a NiNTA column. The resulting purified enzyme was then used in the following c-Met Homogeneous Time Resolved Fluorescence assay (HTRF) to find compounds of the invention and to perform initial activity determinations. Specifically, this assay measures the ability of compounds of the invention to inhibit the phosphorylation of a randomly synthesized, biotinylated heterocopolymeric polypeptide composed of glutamic acid and tyrosine, with an average length of 100 aa. The assay analyzes the amount of phosphorylated polypeptide produced. […]
The formation of phosphorylated heterocopolymeric, biotinylated polypeptide was quantified with the HTRF assay technology using an anti-phosphotyrosine antibody, PT66, conjugated to europium cryptate, mixed with a streptavidin-XL665 conjugate. […]

Amino acid sequences for entries named in this document (tags omitted). Residues count along the entry.
UniProt P08581, 960-1390 limits assumed: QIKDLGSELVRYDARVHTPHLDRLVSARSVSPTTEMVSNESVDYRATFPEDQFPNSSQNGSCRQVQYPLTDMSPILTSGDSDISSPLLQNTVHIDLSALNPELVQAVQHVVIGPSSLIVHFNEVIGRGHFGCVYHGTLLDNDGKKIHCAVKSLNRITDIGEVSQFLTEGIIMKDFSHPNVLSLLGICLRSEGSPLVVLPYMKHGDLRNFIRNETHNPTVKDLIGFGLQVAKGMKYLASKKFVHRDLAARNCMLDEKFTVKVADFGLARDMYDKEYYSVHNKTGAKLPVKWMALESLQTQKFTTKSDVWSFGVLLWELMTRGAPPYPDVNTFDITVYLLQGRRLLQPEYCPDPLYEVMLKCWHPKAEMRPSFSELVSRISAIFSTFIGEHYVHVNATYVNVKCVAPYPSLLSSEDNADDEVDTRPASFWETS

Structure (SMILES) | IC50
CC1=C(C#N)C(c2ccc3[nH]ncc3c2)C(C#N)=C(c2ccc(C(=O)O)cc2)N1 (centres unmarked) | < 100 nM
CC1=C(C#N)C(c2ccc3c(c2)c(N)nn3Cc2ccc(N)cc2)C(C#N)=C(C)N1 | 500 to 2500 nM
